Laboratory results published in publication PMC9446774.
These are yes or no findings as the source states them, for the method shown. Binding seen in cells or lysates may run through a third protein. Some binding calls cover weakened binding; strength is not graded here. For some of these results: Sequences can lack the tags named with a protein.

Chains of the proteins cited; added tags and fusions are not shown.
UniProt P14618: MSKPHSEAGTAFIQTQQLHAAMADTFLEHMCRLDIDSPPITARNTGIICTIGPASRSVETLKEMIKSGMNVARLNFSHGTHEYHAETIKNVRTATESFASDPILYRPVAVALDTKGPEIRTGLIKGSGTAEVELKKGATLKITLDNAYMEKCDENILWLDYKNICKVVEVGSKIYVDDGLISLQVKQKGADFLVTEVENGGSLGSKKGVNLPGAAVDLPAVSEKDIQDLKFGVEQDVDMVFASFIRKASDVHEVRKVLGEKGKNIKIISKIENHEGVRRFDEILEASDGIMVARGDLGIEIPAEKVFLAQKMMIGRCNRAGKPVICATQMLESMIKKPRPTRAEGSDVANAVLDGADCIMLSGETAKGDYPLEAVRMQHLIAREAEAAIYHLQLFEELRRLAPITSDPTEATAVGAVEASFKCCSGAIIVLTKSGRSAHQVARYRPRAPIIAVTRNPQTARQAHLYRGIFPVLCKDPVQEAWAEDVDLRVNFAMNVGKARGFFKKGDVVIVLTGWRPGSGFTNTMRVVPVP

T1: Membrane-associated RING-CH protein 8 (MARCH8) (human) (UniProt Q5T0T0)
T1 sequence: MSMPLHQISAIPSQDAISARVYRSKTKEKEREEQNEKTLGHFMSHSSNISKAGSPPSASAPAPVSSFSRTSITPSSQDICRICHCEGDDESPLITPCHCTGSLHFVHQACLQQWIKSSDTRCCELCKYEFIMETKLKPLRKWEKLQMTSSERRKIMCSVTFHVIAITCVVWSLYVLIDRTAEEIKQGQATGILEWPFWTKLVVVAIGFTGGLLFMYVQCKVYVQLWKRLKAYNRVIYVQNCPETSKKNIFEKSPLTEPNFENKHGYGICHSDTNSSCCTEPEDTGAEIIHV

B1: hexokinase 2 (HK2) (protein, UniProt P52789 1-917)
chain: MIASHLLAYFFTELNHDQVQKVDQYLYHMRLSDETLLEISKRFRKEMEKGLGATTHPTAAVKMLPTFVRSTPDGTEHGEFLALDLGGTNFRVLWVKVTDNGLQKVEMENQIYAIPEDIMRGSGTQLFDHIAECLANFMDKLQIKDKKLPLGFTFSFPCHQTKLDESFLVSWTKGFKSSGVEGRDVVALIRKAIQRRGDFDIDIVAVVNDTVGTMMTCGYDDHNCEIGLIVGTGSNACYMEEMRHIDMVEGDEGRMCINMEWGAFGDDGSLNDIRTEFDQEIDMGSLNPGKQLFEKMISGMYMGELVRLILVKMAKEELLFGGKLSPELLNTGRFETKDISDIEGEKDGIRKAREVLMRLGLDPTQEDCVATHRICQIVSTRSASLCAATLAAVLQRIKENKGEERLRSTIGVDGSVYKKHPHFAKRLHKTVRRLVPGCDVRFLRSEDGSGKGAAMVTAVAYRLADQHRARQKTLEHLQLSHDQLLEVKRRMKVEMERGLSKETHASAPVKMLPTYVCATPDGTEKGDFLALDLGGTNFRVLLVRVRNGKWGGVEMHNKIYAIPQEVMHGTGDELFDHIVQCIADFLEYMGMKGVSLPLGFTFSFPCQQNSLDESILLKWTKGFKASGCEGEDVVTLLKEAIHRREEFDLDVVAVVNDTVGTMMTCGFEDPHCEVGLIVGTGSNACYMEEMRNVELVEGEEGRMCVNMEWGAFGDNGCLDDFRTEFDVAVDELSLNPGKQRFEKMISGMYLGEIVRNILIDFTKRGLLFRGRISERLKTRGIFETKFLSQIESDCLALLQVRAILQHLGLESTCDDSIIVKEVCTVVARRAAQLCGAGMAAVVDRIRENRGLDALKVTVGVDGTLYKLHPHFAKVMHETVKDLAPKCDVSFLQSEDGSGKGAALITAVACRIREAGQR
B2: glucose transporter 4 (GLUT4) (protein, UniProt P14672 1-509)
chain: MPSGFQQIGSEDGEPPQQRVTGTLVLAVFSAVLGSLQFGYNIGVINAPQKVIEQSYNETWLGRQGPEGPSSIPPGTLTTLWALSVAIFSVGGMISSFLIGIISQWLGRKRAMLVNNVLAVLGGSLMGLANAAASYEMLILGRFLIGAYSGLTSGLVPMYVGEIAPTHLRGALGTLNQLAIVIGILIAQVLGLESLLGTASLWPLLLGLTVLPALLQLVLLPFCPESPRYLYIIQNLEGPARKSLKRLTGWADVSGVLAELKDEKRKLERERPLSLLQLLGSRTHRQPLIIAVVLQLSQQLSGINAVFYYSTSIFETAGVGQPAYATIGAGVVNTVFTLVSVLLVERAGRRTLHLLGLAGMCGCAILMTVALLLLERVPAMSYVSIVAIFGFVAFFEIGPGPIPWFIVAELFSQGPRPAAMAVAGFSNWTSNFIIGMGFQYVAEAMGPYVFLLFAVLLLGFFIFTFLRVPETRGRTFDQISAAFHRTPSLLEQEVKPSTELEYLGPDEND

Tests used:
[1] = biological target: T1, Membrane-associated RING-CH protein 8 (MARCH8) (human); experiment: co-IP; immunoprecipitation from cell lysates (Fig. 3B), cell line and precipitating antibody not stated for this panel; antibody 1 h at 4 °C, protein A/G-agarose beads 3 h at 4 °C, Western blot
[2] = biological target: T1, Membrane-associated RING-CH protein 8 (MARCH8) (human); experiment: co-IP; Co-IP in SW480 cells (Fig. 3G); lysates with anti-MARCH8, anti-HK2 or IgG 1 h at 4 °C, protein A/G-agarose beads 3 h at 4 °C, Western blot

Molecule	binding [1]	binding [2]
pyruvate kinase M2 (PKM2) (from UniProt P14618 1-531)	no binding	
B1	binds	binds
B2	no binding	
